Values are relative to the signal before dosing, not to a vehicle control; the signal also falls without drug.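 Fibroblast labels denote human fibroblasts, mainly primary ones from uterus (C12385, HUF), lung (H6013), bone (Hs27A), adrenal (HADF) and skin (WS1), plus mammary HMF and breast cancer-associated Hs343T. Cancer cells are basal-like or mesenchymal-like triple-negative breast cancer lines. A hit is a response shift exceeding 3x replicate standard deviation. The tissue of the other fibroblasts is not given here.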
Tested on: MDAMB231
Test: relative JC-1 red fluorescence (viability) vs pre-drug, coculture with fibroblast (fraction); higher = more viable cancer cells
Method: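 JC-1 labelled TNBC cells cocultured 1:1 (1,500 cells each) with CellTrace Violet stained primary or stromal fibroblasts in 384-well plates in FluoroBrite medium, treated with one of 42 anticancer drugs at 0.1, 1, 10 or 100 uM. JC-1 red fluorescence (mitochondrial integrity in cancer cells only) was read by plate reader every 8 h for 72 h. Values are normalised to each well's pre-drug value. The stock of one drug was tenfold lower, so its dose labels may be too high.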

CC(=O)O[C@H]1C(=O)[C@@]2(C)[C@H]([C@H](OC(=O)c3ccccc3)[C@]3(O)C[C@H](OC(=O)[C@H](O)[C@@H](NC(=O)c4ccccc4)c4ccccc4)C(C)=C1C3(C)C)[C@]1(OC(C)=O)CO[C@@H]1C[C@@H]2O [Paclitaxel]
relative JC-1 red fluorescence
Conditions	8 h	16 h	24 h	32 h	40 h	48 h	56 h	64 h	72 h
0.1 µM, coculture fibroblast: C12385	0.792	0.727	0.6691	0.5968	0.5324	0.5157	0.487	0.493	0.496
0.1 µM, coculture fibroblast: H6013	0.902	0.815	0.7519	0.712	0.641	0.622	0.591	0.577	0.543
0.1 µM, coculture fibroblast: H6019	0.7599	0.628	0.613	0.543	0.504	0.508	0.484	0.4984	0.489
0.1 µM, coculture fibroblast: H6076	0.856	0.7461	0.67	0.645	0.608	0.586	0.578	0.575	0.595
0.1 µM, coculture fibroblast: H6231	0.93114	0.85	0.729	0.664	0.6	0.572	0.537	0.535	0.508
0.1 µM, coculture fibroblast: HADF	0.9002	0.873	0.774	0.7205	0.656	0.636	0.605	0.59	0.541
0.1 µM, coculture fibroblast: HCFa	0.9027	0.8221	0.76	0.701	0.625	0.578	0.539	0.503	0.453
0.1 µM, coculture fibroblast: HCPF	0.893	0.796	0.7016	0.686	0.64	0.607	0.569	0.5587	0.5507
0.1 µM, coculture fibroblast: HHSteC	0.92845	0.863	0.821	0.763	0.72	0.71	0.678	0.661	0.621
0.1 µM, coculture fibroblast: HMF	0.902	0.804	0.712	0.667	0.609	0.559	0.506	0.49	0.482
0.1 µM, coculture fibroblast: HPFa	0.9546	0.8839	0.819	0.7339	0.699	0.667	0.609	0.581	0.536
0.1 µM, coculture fibroblast: HUF	0.8514	0.708	0.716	0.593	0.543	0.528	0.49	0.498	0.491
0.1 µM, coculture fibroblast: Hs5	0.848	0.76029	0.716	0.681	0.659	0.613	0.589	0.586	0.577
0.1 µM, coculture fibroblast: Hs27A	0.8833	0.8379	0.7774	0.7349	0.693	0.647	0.65	0.628	0.598
0.1 µM, coculture fibroblast: Hs343T	0.843	0.724	0.624	0.584	0.541	0.501	0.459	0.456	0.446
0.1 µM, coculture fibroblast: WS1	0.78	0.672	0.62	0.554	0.496	0.48	0.44	0.451	0.444
1 µM, coculture fibroblast: C12385	0.7681	0.692	0.684	0.607	0.534	0.5235	0.491	0.514	0.515
1 µM, coculture fibroblast: H6013	0.9083	0.831	0.796	0.74	0.688	0.691	0.671	0.657	0.631
1 µM, coculture fibroblast: H6019	0.767	0.681	0.672	0.614	0.579	0.58	0.56	0.578	0.569
1 µM, coculture fibroblast: H6076	0.818	0.732	0.693	0.667	0.629	0.6069	0.619	0.627	0.646
1 µM, coculture fibroblast: H6231	0.9467	0.895	0.8068	0.768	0.703	0.673	0.63	0.618	0.59
1 µM, coculture fibroblast: HADF	0.882	0.8218	0.7806	0.73	0.673	0.642	0.609	0.612	0.579
1 µM, coculture fibroblast: HCFa	0.8934	0.8156	0.7709	0.712	0.644	0.609	0.571	0.542	0.502
1 µM, coculture fibroblast: HCPF	0.846	0.726	0.67	0.641	0.5713	0.5389	0.515	0.498	0.492
1 µM, coculture fibroblast: HHSteC	0.917	0.872	0.8196	0.752	0.696	0.675	0.631	0.617	0.582
1 µM, coculture fibroblast: HMF	0.894	0.787	0.722	0.67	0.606	0.572	0.543	0.521	0.503
1 µM, coculture fibroblast: HPFa	0.935	0.8831	0.816	0.726	0.7025	0.676	0.627	0.601	0.547
1 µM, coculture fibroblast: HUF	0.8662	0.744	0.748	0.627	0.56	0.55	0.513	0.512	0.492
1 µM, coculture fibroblast: Hs5	0.87	0.829	0.81	0.767	0.735	0.683	0.678	0.668	0.657
1 µM, coculture fibroblast: Hs27A	0.8882	0.8427	0.7919	0.762	0.708	0.67	0.666	0.656	0.634
1 µM, coculture fibroblast: Hs343T	0.844	0.702	0.644	0.601	0.542	0.492	0.4485	0.441	0.428
1 µM, coculture fibroblast: WS1	0.77	0.681	0.641	0.558	0.53	0.51	0.485	0.493	0.487
10 µM, coculture fibroblast: C12385	0.817	0.7702	0.756	0.696	0.6406	0.6325	0.6013	0.6194	0.622
10 µM, coculture fibroblast: H6013	0.923	0.868	0.81	0.768	0.712	0.704	0.686	0.671	0.642
10 µM, coculture fibroblast: H6019	0.794	0.71	0.657	0.62	0.594	0.594	0.573	0.59	0.565
10 µM, coculture fibroblast: H6076	0.911	0.909	0.841	0.862	0.821	0.797	0.798	0.787	0.793
10 µM, coculture fibroblast: H6231	0.962	0.902	0.815	0.7531	0.685	0.644	0.589	0.571	0.535
10 µM, coculture fibroblast: HADF	0.92	0.879	0.8169	0.774	0.73	0.721	0.679	0.666	0.639
10 µM, coculture fibroblast: HCFa	0.919	0.861	0.811	0.758	0.689	0.649	0.608	0.58	0.546
10 µM, coculture fibroblast: HCPF	0.9178	0.8239	0.72	0.692	0.62	0.586	0.537	0.521	0.503
10 µM, coculture fibroblast: HHSteC	0.944	0.8891	0.835	0.7812	0.7295	0.7187	0.67468	0.6791	0.639
10 µM, coculture fibroblast: HMF	0.9807	0.8995	0.774	0.72	0.66	0.622	0.566	0.538	0.518
10 µM, coculture fibroblast: HPFa	0.9799	0.95587	0.8846	0.812	0.776	0.738	0.696	0.672	0.633
10 µM, coculture fibroblast: HUF	0.889	0.7842	0.796	0.6783	0.6154	0.601	0.571	0.578	0.582
10 µM, coculture fibroblast: Hs5	0.958	0.861	0.786	0.737	0.681	0.627	0.594	0.582	0.578
10 µM, coculture fibroblast: Hs27A	0.9184	0.888	0.85	0.817	0.771	0.738	0.74	0.733	0.701
10 µM, coculture fibroblast: Hs343T	0.922	0.826	0.718	0.6748	0.609	0.565	0.52	0.501	0.483
10 µM, coculture fibroblast: WS1	0.8057	0.7318	0.6615	0.603	0.557	0.535	0.493	0.492	0.479

Source: the supplement of paper PMC6078165
